In all, about 220,000 compounds went through this assay and about 2,400 (1.1%) were called active. Inconclusive results, whose numbers are uncertain, are shown with a selection of clear calls. Calls come from the whole dose curve; as a rule, active = well fitted inhibition curve with a large enough effect; inconclusive = small, poorly fitted or top-dose-only effect, or effect the other way; inactive = no such curve, though single readings can be large or run the other way. Potencies beside an inconclusive call are fits to weak or partial responses and may not hold up.
Test: qHTS Multiplex Assay to Identify Dual Action Probes in a Cell Model of Huntington: Aggregate Formation (GFP); note: nearly all actives have a fitted effect of over 60% in size
Conditions: PC12 HttQ103-GFP aggregates, Acumen cytometry, 40 h; activity change, negative = inhibition: at 46.1 µM (top of the series) unless noted
Summary of the method: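 Aggregate formation scored by laser-scanning cytometer (488 excitation, 500–530 emission) in lysed PC12 cells expressing Q103-GFP after 100 nM tebufenozide induction; library tested in dose series, with ATPLite reagent added in the multiplex.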
% is set by controls: 0 for no effect and ±100 for the full control effect; potency is the fitted concentration of half-maximal effect.

| SMILES | activity change, negative = inhibition | Potency |
| --- | --- | --- |
| COc1ccc(NC2c3ccccc3C(=O)N2Cc2ccc3c(c2)OCO3)cc1 (centres undefined) | inactive: -6.55% [at 9.22 µM] | – |
| O=C(Nc1ccc(F)cc1)Nc1ccc(N2CCCC2)c(S(=O)(=O)Nc2ccccc2Cl)c1 | – | inconclusive: 3.55 µM [inhibitor, full curve] |
| O=C(CSc1nnnn1C1CCCCC1)N1c2ccccc2Sc2ccccc21 | – | inconclusive: 8.91 µM [inhibitor, partial curve, poor fit] |
| Cc1ccc(C(=O)/C=C/C(=O)c2ccc(C)cc2)cc1 | – | inconclusive: 35.5 µM [inhibitor, single point] |
| COc1ccc(CCNC(=O)COc2ccccc2[N+](=O)[O-])cc1OC | inactive: 3.72% [at 9.22 µM] | – |
| C=CCn1c(C)cc(C(=O)Cn2c(C(C)O)nc3ccccc32)c1C (centres undefined) | – | inconclusive: 35.5 µM [inhibitor, single point] |
| Cc1cccc2sc(NNC(=O)c3ccc(S(=O)(=O)N4CC(C)CC(C)C4)cc3)nc12 (centres undefined) | – | inconclusive: 12.6 µM [inhibitor, partial curve] |
| COCC(O)CSc1nc(C)[nH]c1[N+](=O)[O-] (centres undefined) | inactive: 1.8% [at 9.22 µM] | – |
| CCCCS(=O)(=O)c1sc2nc3c(cc2c1N)CCCC3 | – | inconclusive: 11.2 µM [inhibitor, partial curve] |
| CC(=O)/C(N=Nc1cc(C)ccc1O)=C(\C)O | inactive: -6.11% [at 9.22 µM] | – |
| O=C(CCCOc1ccc(Cl)cc1Cl)NCc1ccccn1 | – | inconclusive: 1.26 µM [inhibitor, single point] |
| N#Cc1c(NC(NC(=O)c2ccco2)C(=O)c2ccccc2)sc2c1CCCC2 (centres undefined) | – | inconclusive: 11.2 µM [inhibitor, partial curve, poor fit] |
| COc1ccccc1Cc1nc(-c2ccncc2)no1 | inactive: 10.9% [at 9.22 µM] | – |
| COc1ccc(-c2cc(C(F)(F)F)nc(S(=O)(=O)CCCC(=O)Nc3cccc(O)c3)n2)cc1OC | – | inconclusive: 22.4 µM [inhibitor, single point] |
| O=C(CCC(=O)N1CCN(c2ccccc2)CC1)Nc1nnc(C2CCCCC2)s1 | inactive: 9.74% [at 9.22 µM] | – |
| CC1(C(=O)N/N=C/c2ccc([N+](=O)[O-])o2)CC1(Br)Br (centres undefined) | – | inconclusive: 35.5 µM [inhibitor, single point] |
| CN(c1ccccc1)S(=O)(=O)c1cccc(NC(=O)c2cc(=O)c3ccccc3o2)c1 | – | active: 12.6 µM |
| COc1cc(/C=C/C(=O)c2cccc([N+](=O)[O-])c2)cc(OC)c1OC | – | inconclusive: 35.5 µM [inhibitor, single point] |
| CN(C)CC(C(=O)c1ccccc1)c1ccccc1 (centres undefined) | – | inconclusive: 35.5 µM [inhibitor, single point] |
| CSC(=NS(=O)(=O)c1ccc(C)cc1)SC | – | inconclusive: 1.78 µM [activator, full curve, poor fit] |
| O=C(Nc1cccc(C(=O)N2CCN(Cc3ccccc3)CC2)c1)c1ccccc1 | – | active: 11.2 µM |
| CCCC(=O)Nc1cc(Cl)ccc1N1CCN(C(=O)CC)CC1 | – | inconclusive: 1.26 µM [activator, single point] |
| Cc1ccc(-n2nc(C)c(NC(=O)CCl)c2C)cc1 | – | inconclusive: 35.5 µM [inhibitor, single point] |

| SMILES | activity change, negative = inhibition | Potency |
| --- | --- | --- |
| N#Cc1nc(-c2cccs2)oc1NCc1ccc(Cl)cc1 | – | inconclusive: 0.112 µM [activator, partial curve, poor fit] |
| CN(C(=O)c1cc(-n2cnnc2)ccc1Cl)c1ccccc1 | inactive: 3.01% | – |
| CSCCC(NS(=O)(=O)c1ccccc1F)C(=O)NC(C)c1ccccc1 (centres undefined) | inactive: -0.533% | – |
| COCC(C)n1c(SCC(=O)N2CCc3ccccc3C2)nc2ccccc2c1=O (centres undefined) | – | inconclusive: 28.2 µM [inhibitor, single point] |
| CCc1nn(CC(=O)NCCCN(CC)c2cccc(C)c2)c(=O)c2cc3occc3n12 | – | inconclusive: 7.94 µM [activator, full curve] |
| COc1ccc(-c2nnc(SCc3nc4ccccc4s3)n2C(C)C)cc1 | – | inconclusive: 35.5 µM [inhibitor, single point] |
| Cc1ccc(CNC(=O)c2cc3c(=O)n4ccccc4nc3n(Cc3ccco3)c2=N)cc1 | – | inconclusive: 5.62 µM [activator, single point] |
| O=C(COC(=O)c1c[nH]c(=O)[nH]c1=O)Nc1ccccc1F | inactive: -1.54% | – |
| O=C(NC1CCCCC1)c1sc(N2CCOCC2)nc1-c1ccccc1 | – | inconclusive: 0.891 µM [activator, full curve] |
| CCN(CC)CCN1C(=O)C(O)=C(C(=O)c2cccs2)C1c1ccccn1 (centres undefined) | inactive: -2.25% [at 9.22 µM] | – |
| COc1ccc(CNCCc2ccccc2)cc1OCC(N)=O | – | inconclusive: 3.16 µM [activator, partial curve] |
| O=C(CSc1ccc(-c2ccccn2)nn1)NCc1ccc(Cl)cc1 | – | inconclusive: 31.6 µM [inhibitor, single point] |
| O=C(Nc1ccccc1)c1nnsc1S(=O)(=O)c1ccc(Cl)cc1 | – | inconclusive: 35.5 µM [inhibitor, single point] |
| O=C(Nc1ccc(N2CCN(C(=O)c3ccccc3)CC2)c(Cl)c1)c1cccnc1 | – | active: 22.4 µM |
| CC(C)C(=O)Nc1ccc2c(c1)nc(CCN1CCN(c3ccccc3)CC1)n2C | inactive: -21.4% [at 9.22 µM] | – |
| S=C(NCCc1ccc(Cl)cc1)Nc1ccc(Cl)cc1Cl | – | inconclusive: 35.5 µM [inhibitor, single point] |
| CCn1ncc(C2=NOC(C(=O)Nc3c(C)nn(Cc4ccc(F)cc4)c3C)C2)c1C (centres undefined) | – | inconclusive: 11.2 µM [inhibitor, partial curve] |
| CN(C)S(=O)(=O)c1ccc(Cl)c(NC(=O)CSc2nnnn2-c2ccc(O)cc2)c1 | – | inconclusive: 0.562 µM [activator, full curve] |
| Cc1ccc(C)n1-c1sc2c(c1C#N)CCC(C)C2 (centres undefined) | inactive: 6.15% [at 9.22 µM] | – |
| O=C(COc1ccccc1)N(Cc1ccco1)C1CCS(=O)(=O)C1 (centres undefined) | inactive: 7.25% | – |
| CCCn1nnnc1SCC(=O)NCc1ccc2c(c1)OCO2 | – | active: 0.0158 µM |
| CC1=NN(C(=O)CSCc2ccccc2)C(O)(c2ccc(F)cc2)C1 (centres undefined) | inactive: -23.1% | – |
| CC(=O)c1cccc(NC(=O)Cc2cccs2)c1 | – | inconclusive: 10 µM [inhibitor, single point] |

A different layout for part of the listing above.
SMILES | activity change, negative = inhibition | Potency
CSCCC(NS(=O)(=O)c1ccccc1F)C(=O)NC(C)c1ccccc1 (centres undefined) | inactive: -0.533% | –
COc1ccc(-c2nnc(SCc3nc4ccccc4s3)n2C(C)C)cc1 | – | inconclusive: 35.5 µM [inhibitor, single point]
S=C(NCCc1ccc(Cl)cc1)Nc1ccc(Cl)cc1Cl | – | inconclusive: 35.5 µM [inhibitor, single point]

(list continues)

| SMILES | activity change, negative = inhibition | Potency |
| --- | --- | --- |
| CCC(c1nnnn1C(C)(C)C)N(Cc1ccco1)Cc1cc2cccc(C)c2[nH]c1=O (centres undefined) | – | inconclusive: 35.5 µM [inhibitor, single point] |
| Cc1ccc(S(=O)(=O)N2CCN(C(=O)CSc3ncc(C(F)(F)F)cc3Cl)CC2)cc1 | – | inconclusive: 22.4 µM [inhibitor, single point] |
| CN(CC(=O)Nc1sc2c(c1C#N)CCCCC2)Cc1nc2ccccc2c(=O)[nH]1 | – | inconclusive: 35.5 µM [inhibitor, single point] |
| O=C(Cc1ccc(Cl)c(Cl)c1)Nc1ccc(SC(F)F)cc1 | – | active: 12.6 µM |
| COc1ccc(CCNC(=O)CCCOc2cc(=O)n(C)c3ccccc23)cc1OC | – | inconclusive: 20 µM [activator, single point] |
| COC(=O)C1=C(C)NC(C)=C(C(=O)OC)C1c1ccc(OC(=O)c2ccco2)cc1 | – | inconclusive: 35.5 µM [activator, single point] |
| C#CCn1c(=NC(=O)c2ccc(S(=O)(=O)N3CCc4ccccc4C3)cc2)sc2cc(S(N)(=O)=O)ccc21 | – | active: 10 µM |
| O=C(NCCc1ccc2c(c1)OCCO2)c1ccccc1F | – | inconclusive: 35.5 µM [inhibitor, single point] |
| FC(F)(F)c1ccccc1NC(=S)N1CCN(c2ccccn2)CC1 | – | inconclusive: 14.1 µM [inhibitor, single point] |
| CCOc1ccc(C2CC(c3cccc(OC)c3OC)n3nnnc3N2)cc1Cl (centres undefined) | – | inconclusive: 3.55 µM [inhibitor, single point] |
| Cc1cc(-c2n[nH]c(=S)n2/N=C/c2sccc2C)n[nH]1 | inactive: -10% | – |
| Nc1ncc(-c2nnnn2-c2ccc(Cl)cc2)c(-c2ccc(Cl)cc2)n1 | – | inconclusive: 25.1 µM [inhibitor, single point] |
| CCSc1nc(-c2ccc(OC)cc2)cc(-c2ccccc2)c1C#N | – | inconclusive: 11.2 µM [inhibitor, partial curve] |
| CC(Sc1ncc(C#N)c(N)n1)C(=O)Nc1ccccc1 (centres undefined) | inactive: -21.2% | – |
| COc1cc2c(cc1NC(=O)CSCC(=O)O)oc1ccccc12 | inactive: -5.69% | – |
| CN(c1cccc(Cl)c1)S(=O)(=O)c1cccc(C(=O)Nc2nc3ccccc3[nH]2)c1 | – | active: 20 µM |
| COC(=O)/C(=N/Nc1ccccc1C)N1CCCc2ccccc21 | – | inconclusive: 0.562 µM [activator, full curve, poor fit] |
| O=C(Cc1csc(-c2ccccc2)n1)Nc1ccc(C(F)(F)F)cc1 | – | inconclusive: 35.5 µM [inhibitor, single point] |
| N#Cc1nc(Cc2ccccc2)oc1N1CCCC1 | – | inconclusive: 0.562 µM [activator, full curve, poor fit] |
| CCOC(=O)c1c(C)oc2ccc(NS(=O)(=O)c3ccc4c5c(cccc35)C(=O)N4)cc12 | – | inconclusive: 25.1 µM [inhibitor, partial curve] |
| CC(C)(C)NC(=O)NC(=O)CN1CCN(c2ccc(O)cc2)CC1 | inactive: -17.9% | – |
| O=C(CCCC(=O)N(CC(=O)NC1CCCC1)C1CCCC1)Nc1ccccn1 | inactive: -16.4% | – |
| O=C(CCCOc1ccccc1)Nc1ccncc1 | inactive: 5.9% | – |

Reference: PubChem BioAssay AID1688 (National Center for Advancing Translational Sciences (NCATS), 2009)
